Experimental data as given in the supplement of paper PMC6078165.
± gives the standard deviation of the averaged measurements. The reference is the same well before dosing, and untreated signal decays as well.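 Labels refer to human fibroblasts, largely primary: uterine (C12385, HUF), lung (H6013), bone (Hs27A), adrenal (HADF), skin (WS1), plus mammary HMF and breast cancer-associated Hs343T. Cancer lines are basal-like or mesenchymal-like triple-negative breast cancer. The paper counts as hits responses shifting over 3x the replicate standard deviation. The tissue of the other fibroblasts is not given here.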

System: HCC1143
Test: relative JC-1 red fluorescence (viability) vs pre-drug, coculture with fibroblast (fraction); higher = more viable cancer cells
Procedure: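 JC-1 labelled TNBC cells cocultured 1:1 (1,500 cells each) with CellTrace Violet stained primary or stromal fibroblasts in 384-well plates in FluoroBrite medium, treated with one of 42 anticancer drugs at 0.1, 1, 10 or 100 uM. JC-1 red fluorescence (mitochondrial integrity in cancer cells only) was read by plate reader every 8 h for 72 h. Values are normalised to each well's pre-drug value. The stock of one drug was tenfold lower, so its dose labels may be too high.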

CC(C)C[C@H](NC(=O)[C@@H](COC(C)(C)C)NC(=O)[C@H](Cc1ccc(O)cc1)NC(=O)[C@H](CO)NC(=O)[C@H](Cc1c[nH]c2ccccc12)NC(=O)[C@H](Cc1cnc[nH]1)NC(=O)[C@@H]1CCC(=O)N1)C(=O)N[C@@H](CCCNC(=N)N)C(=O)N1CCC[C@H]1C(=O)NNC(N)=O [Goserelin]
relative JC-1 red fluorescence
Conditions | 8 h | 16 h | 24 h | 32 h | 40 h | 48 h | 56 h | 64 h | 72 h
0.1 µM, coculture fibroblast: C12385 | 0.846 ± 0.012 | 0.761 ± 0.0078 | 0.695 ± 0.026 | 0.628 ± 0.038 | 0.558 ± 0.042 | 0.512 ± 0.045 | 0.464 ± 0.051 | 0.418 ± 0.05 | 0.397 ± 0.045
0.1 µM, coculture fibroblast: H6013 | 0.719 ± 0.025 | 0.619 ± 0.028 | 0.563 ± 0.039 | 0.542 ± 0.047 | 0.469 ± 0.041 | 0.456 ± 0.035 | 0.42 ± 0.024 | 0.404 ± 0.015 | 0.374 ± 0.017
0.1 µM, coculture fibroblast: H6019 | 0.792 ± 0.025 | 0.716 ± 0.032 | 0.663 ± 0.035 | 0.601 ± 0.036 | 0.55 ± 0.046 | 0.522 ± 0.04 | 0.473 ± 0.034 | 0.427 ± 0.027 | 0.397 ± 0.03
0.1 µM, coculture fibroblast: H6076 | 0.7906 ± 0.0052 | 0.798 ± 0.034 | 0.748 ± 0.042 | 0.691 ± 0.029 | 0.648 ± 0.035 | 0.621 ± 0.032 | 0.591 ± 0.032 | 0.566 ± 0.027 | 0.573 ± 0.032
0.1 µM, coculture fibroblast: H6231 | 0.809 ± 0.0065 | 0.803 ± 0.028 | 0.747 ± 0.033 | 0.633 ± 0.0093 | 0.658 ± 0.035 | 0.625 ± 0.037 | 0.581 ± 0.038 | 0.547 ± 0.041 | 0.517 ± 0.036
0.1 µM, coculture fibroblast: HADF | 0.773 ± 0.034 | 0.688 ± 0.054 | 0.659 ± 0.05 | 0.649 ± 0.057 | 0.545 ± 0.08 | 0.516 ± 0.092 | 0.477 ± 0.097 | 0.45 ± 0.092 | 0.424 ± 0.078
0.1 µM, coculture fibroblast: HCFa | 0.816 ± 0.078 | 0.759 ± 0.14 | 0.728 ± 0.15 | 0.713 ± 0.18 | 0.628 ± 0.18 | 0.6 ± 0.18 | 0.553 ± 0.18 | 0.509 ± 0.18 | 0.481 ± 0.16
0.1 µM, coculture fibroblast: HCPF | 0.826 ± 0.019 | 0.8 ± 0.036 | 0.732 ± 0.027 | 0.6473 ± 0.0041 | 0.624 ± 0.021 | 0.587 ± 0.016 | 0.547 ± 0.024 | 0.514 ± 0.023 | 0.495 ± 0.015
0.1 µM, coculture fibroblast: HHSteC | 0.8106 ± 0.007 | 0.713 ± 0.021 | 0.67 ± 0.027 | 0.624 ± 0.027 | 0.543 ± 0.027 | 0.519 ± 0.027 | 0.463 ± 0.03 | 0.433 ± 0.031 | 0.384 ± 0.011
0.1 µM, coculture fibroblast: HMF | 0.794 ± 0.04 | 0.851 ± 0.0089 | 0.7811 ± 0.0076 | 0.67 ± 0.047 | 0.676 ± 0.0099 | 0.638 ± 0.016 | 0.598 ± 0.024 | 0.562 ± 0.03 | 0.525 ± 0.029
0.1 µM, coculture fibroblast: HPFa | 0.8855 ± 0.004 | 0.783 ± 0.011 | 0.739 ± 0.026 | 0.637 ± 0.026 | 0.572 ± 0.024 | 0.534 ± 0.034 | 0.462 ± 0.025 | 0.407 ± 0.019 | 0.364 ± 0.024
0.1 µM, coculture fibroblast: HUF | 0.846 ± 0.01 | 0.754 ± 0.0087 | 0.71 ± 0.012 | 0.63 ± 0.02 | 0.569 ± 0.028 | 0.543 ± 0.032 | 0.487 ± 0.037 | 0.454 ± 0.036 | 0.424 ± 0.048
0.1 µM, coculture fibroblast: Hs5 | 0.841 ± 0.016 | 0.882 ± 0.015 | 0.815 ± 0.011 | 0.765 ± 0.02 | 0.699 ± 0.0079 | 0.661 ± 0.015 | 0.622 ± 0.015 | 0.58 ± 0.022 | 0.56 ± 0.032
0.1 µM, coculture fibroblast: Hs27A | 0.715 ± 0.033 | 0.614 ± 0.021 | 0.574 ± 0.029 | 0.586 ± 0.019 | 0.461 ± 0.027 | 0.439 ± 0.028 | 0.388 ± 0.026 | 0.356 ± 0.02 | 0.338 ± 0.023
0.1 µM, coculture fibroblast: Hs343T | 0.805 ± 0.019 | 0.832 ± 0.088 | 0.766 ± 0.058 | 0.681 ± 0.045 | 0.6439 ± 0.00082 | 0.603 ± 0.025 | 0.552 ± 0.047 | 0.523 ± 0.048 | 0.501 ± 0.071
0.1 µM, coculture fibroblast: WS1 | 0.8008 ± 0.0014 | 0.7338 ± 0.0032 | 0.6685 ± 0.003 | 0.58 ± 0.018 | 0.51 ± 0.018 | 0.462 ± 0.012 | 0.4114 ± 0.003 | 0.369 ± 0.0056 | 0.338 ± 0.013
1 µM, coculture fibroblast: C12385 | 0.849 ± 0.033 | 0.795 ± 0.07 | 0.737 ± 0.066 | 0.651 ± 0.032 | 0.581 ± 0.046 | 0.547 ± 0.049 | 0.502 ± 0.058 | 0.465 ± 0.066 | 0.448 ± 0.063
1 µM, coculture fibroblast: H6013 | 0.78928 ± 0.00069 | 0.6979 ± 0.0059 | 0.6597 ± 0.0013 | 0.647 ± 0.012 | 0.578 ± 0.022 | 0.566 ± 0.034 | 0.532 ± 0.034 | 0.516 ± 0.035 | 0.474 ± 0.021
1 µM, coculture fibroblast: H6019 | 0.792 ± 0.018 | 0.693 ± 0.025 | 0.652 ± 0.0086 | 0.5913 ± 0.0017 | 0.543 ± 0.017 | 0.525 ± 0.025 | 0.48 ± 0.034 | 0.431 ± 0.036 | 0.394 ± 0.038
1 µM, coculture fibroblast: H6076 | 0.785 ± 0.047 | 0.751 ± 0.022 | 0.705 ± 0.046 | 0.679 ± 0.056 | 0.645 ± 0.056 | 0.638 ± 0.058 | 0.603 ± 0.064 | 0.586 ± 0.07 | 0.596 ± 0.06
1 µM, coculture fibroblast: H6231 | 0.8177 ± 0.005 | 0.782 ± 0.026 | 0.7053 ± 0.0039 | 0.635 ± 0.081 | 0.612 ± 0.0098 | 0.58 ± 0.037 | 0.538 ± 0.041 | 0.511 ± 0.047 | 0.482 ± 0.057
1 µM, coculture fibroblast: HADF | 0.765 ± 0.054 | 0.695 ± 0.067 | 0.668 ± 0.078 | 0.672 ± 0.076 | 0.605 ± 0.1 | 0.59 ± 0.11 | 0.557 ± 0.1 | 0.544 ± 0.12 | 0.518 ± 0.11
1 µM, coculture fibroblast: HCFa | 0.832 ± 0.068 | 0.761 ± 0.085 | 0.725 ± 0.09 | 0.72 ± 0.099 | 0.641 ± 0.11 | 0.607 ± 0.11 | 0.562 ± 0.1 | 0.526 ± 0.11 | 0.491 ± 0.096
1 µM, coculture fibroblast: HCPF | 0.814 ± 0.03 | 0.779 ± 0.0089 | 0.7098 ± 0.0032 | 0.664 ± 0.021 | 0.643 ± 0.012 | 0.616 ± 0.019 | 0.582 ± 0.021 | 0.552 ± 0.029 | 0.542 ± 0.042
1 µM, coculture fibroblast: HHSteC | 0.8 ± 0.024 | 0.691 ± 0.014 | 0.656 ± 0.01 | 0.615 ± 0.015 | 0.534 ± 0.022 | 0.503 ± 0.023 | 0.459 ± 0.022 | 0.426 ± 0.021 | 0.384 ± 0.025
1 µM, coculture fibroblast: HMF | 0.817 ± 0.031 | 0.742 ± 0.033 | 0.684 ± 0.023 | 0.681 ± 0.026 | 0.608 ± 0.013 | 0.596 ± 0.02 | 0.569 ± 0.023 | 0.546 ± 0.0091 | 0.53092 ± 0.00023
1 µM, coculture fibroblast: HPFa | 0.8974 ± 0.0046 | 0.817 ± 0.011 | 0.7722 ± 0.001 | 0.689 ± 0.0081 | 0.617 ± 0.0063 | 0.582 ± 0.011 | 0.525 ± 0.0087 | 0.478 ± 0.0069 | 0.4316 ± 0.0019
1 µM, coculture fibroblast: HUF | 0.8788 ± 0.008 | 0.788 ± 0.011 | 0.723 ± 0.021 | 0.643 ± 0.015 | 0.589 ± 0.026 | 0.561 ± 0.021 | 0.508 ± 0.018 | 0.474 ± 0.021 | 0.439 ± 0.015
1 µM, coculture fibroblast: Hs5 | 0.885 ± 0.063 | 0.777 ± 0.013 | 0.753 ± 0.041 | 0.799 ± 0.09 | 0.798 ± 0.22 | 0.786 ± 0.23 | 0.771 ± 0.25 | 0.755 ± 0.26 | 0.772 ± 0.28
1 µM, coculture fibroblast: Hs27A | 0.7437 ± 0.0047 | 0.691 ± 0.024 | 0.65 ± 0.0097 | 0.661 ± 0.018 | 0.566 ± 0.033 | 0.564 ± 0.046 | 0.527 ± 0.055 | 0.501 ± 0.073 | 0.455 ± 0.081
1 µM, coculture fibroblast: Hs343T | 0.7928 ± 0.0058 | 0.823 ± 0.023 | 0.711 ± 0.025 | 0.621 ± 0.041 | 0.592 ± 0.045 | 0.55 ± 0.04 | 0.493 ± 0.043 | 0.467 ± 0.03 | 0.44 ± 0.026
1 µM, coculture fibroblast: WS1 | 0.827 ± 0.01 | 0.736 ± 0.022 | 0.67 ± 0.0091 | 0.581 ± 0.024 | 0.511 ± 0.023 | 0.471 ± 0.029 | 0.417 ± 0.029 | 0.368 ± 0.026 | 0.345 ± 0.024
